No constants are given. Whether binding was seen depends on the method and setting. In cells and extracts the contact can be indirect. Some entries that bind do so weakly or less than the wild type.

The chains behind the UniProt entries cited, without tags or fusion partners.
UniProt Q09472: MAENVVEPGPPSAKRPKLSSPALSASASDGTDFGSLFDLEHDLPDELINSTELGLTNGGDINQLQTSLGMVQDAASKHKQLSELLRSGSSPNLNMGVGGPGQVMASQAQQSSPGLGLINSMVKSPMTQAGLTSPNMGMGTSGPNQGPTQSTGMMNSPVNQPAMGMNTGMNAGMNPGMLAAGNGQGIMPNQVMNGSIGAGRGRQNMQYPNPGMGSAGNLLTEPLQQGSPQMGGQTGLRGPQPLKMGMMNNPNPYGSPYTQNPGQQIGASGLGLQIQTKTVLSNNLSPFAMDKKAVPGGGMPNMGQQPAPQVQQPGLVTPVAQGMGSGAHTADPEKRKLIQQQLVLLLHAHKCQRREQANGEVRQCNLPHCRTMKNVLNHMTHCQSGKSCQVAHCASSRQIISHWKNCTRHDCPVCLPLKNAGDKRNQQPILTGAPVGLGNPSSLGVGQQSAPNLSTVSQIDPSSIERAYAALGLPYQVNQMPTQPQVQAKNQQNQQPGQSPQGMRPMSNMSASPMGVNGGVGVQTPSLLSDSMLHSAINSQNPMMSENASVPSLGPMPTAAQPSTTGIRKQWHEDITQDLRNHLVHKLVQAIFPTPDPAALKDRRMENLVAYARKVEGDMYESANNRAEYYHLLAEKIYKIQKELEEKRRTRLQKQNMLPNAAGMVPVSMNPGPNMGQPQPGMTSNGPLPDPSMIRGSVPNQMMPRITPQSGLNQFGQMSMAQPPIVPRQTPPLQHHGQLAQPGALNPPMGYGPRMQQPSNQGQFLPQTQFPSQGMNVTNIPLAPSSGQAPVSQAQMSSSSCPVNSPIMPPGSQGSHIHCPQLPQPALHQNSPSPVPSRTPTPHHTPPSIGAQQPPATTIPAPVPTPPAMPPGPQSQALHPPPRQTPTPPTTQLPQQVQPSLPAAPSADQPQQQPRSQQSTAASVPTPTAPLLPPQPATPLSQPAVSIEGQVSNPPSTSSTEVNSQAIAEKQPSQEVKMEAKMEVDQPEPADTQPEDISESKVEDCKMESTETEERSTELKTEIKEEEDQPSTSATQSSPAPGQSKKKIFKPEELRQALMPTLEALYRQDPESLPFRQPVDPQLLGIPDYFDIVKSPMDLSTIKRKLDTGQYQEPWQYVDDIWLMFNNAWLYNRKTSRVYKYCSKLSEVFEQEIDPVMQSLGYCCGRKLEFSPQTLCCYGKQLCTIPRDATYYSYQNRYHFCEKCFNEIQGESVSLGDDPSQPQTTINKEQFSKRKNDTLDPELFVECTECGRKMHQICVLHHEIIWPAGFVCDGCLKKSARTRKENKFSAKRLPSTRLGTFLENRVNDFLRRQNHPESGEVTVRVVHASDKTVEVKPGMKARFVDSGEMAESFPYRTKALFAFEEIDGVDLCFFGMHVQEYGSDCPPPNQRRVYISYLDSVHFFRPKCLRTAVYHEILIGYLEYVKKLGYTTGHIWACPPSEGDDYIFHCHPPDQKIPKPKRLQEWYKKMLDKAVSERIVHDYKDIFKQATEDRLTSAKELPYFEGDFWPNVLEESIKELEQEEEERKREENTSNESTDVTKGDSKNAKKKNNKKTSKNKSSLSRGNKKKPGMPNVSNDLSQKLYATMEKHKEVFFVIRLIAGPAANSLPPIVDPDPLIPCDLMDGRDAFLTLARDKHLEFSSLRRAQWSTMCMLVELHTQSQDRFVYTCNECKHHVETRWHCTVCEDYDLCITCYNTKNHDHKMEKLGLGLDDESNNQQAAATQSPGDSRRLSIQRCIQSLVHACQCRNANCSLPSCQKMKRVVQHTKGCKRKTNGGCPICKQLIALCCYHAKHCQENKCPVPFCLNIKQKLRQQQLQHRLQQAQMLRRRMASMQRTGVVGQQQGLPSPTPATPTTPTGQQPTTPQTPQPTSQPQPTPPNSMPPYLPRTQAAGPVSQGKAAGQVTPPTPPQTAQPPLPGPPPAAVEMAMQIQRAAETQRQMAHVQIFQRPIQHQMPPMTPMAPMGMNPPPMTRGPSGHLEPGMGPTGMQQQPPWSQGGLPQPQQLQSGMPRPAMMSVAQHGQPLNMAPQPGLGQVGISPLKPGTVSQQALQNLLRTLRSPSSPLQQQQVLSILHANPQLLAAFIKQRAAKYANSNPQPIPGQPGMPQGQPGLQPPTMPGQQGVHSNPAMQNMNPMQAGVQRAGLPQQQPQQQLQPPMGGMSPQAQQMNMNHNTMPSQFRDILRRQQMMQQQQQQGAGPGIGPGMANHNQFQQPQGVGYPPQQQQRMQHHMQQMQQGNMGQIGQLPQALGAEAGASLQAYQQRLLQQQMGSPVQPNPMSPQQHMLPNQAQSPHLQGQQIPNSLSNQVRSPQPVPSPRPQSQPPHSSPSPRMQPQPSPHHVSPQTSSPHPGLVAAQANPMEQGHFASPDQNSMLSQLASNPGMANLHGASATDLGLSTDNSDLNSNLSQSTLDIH
UniProt P35638: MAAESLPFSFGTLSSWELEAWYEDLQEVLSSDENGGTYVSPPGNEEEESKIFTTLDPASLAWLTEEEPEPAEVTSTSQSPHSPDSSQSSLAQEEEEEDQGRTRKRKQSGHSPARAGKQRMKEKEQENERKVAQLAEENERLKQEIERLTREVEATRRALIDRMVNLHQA

The target of experiment [1] is p300 (human (endogenous in AGS and MKN45)) (UniProt Q09472). In words: co-IP; endogenous proteins; lysates of AGS cells (shCtrl and shASPP2) infected with H. pylori at 30 MOI for 8 h (Figure 5(b)) or for the indicated times (Figure 6(c)), then 10 μM MG132 for 3 h; antibodies against p300 or CHOP on protein A beads, 16 h; immunoblot.
For experiment [2] the target is unchanged. In words: co-IP; endogenous proteins; lysates of MKN45 cells infected with H. pylori at 90 MOI for the indicated times, then 10 μM MG132 for 3 h; antibodies against p300 or CHOP on protein A beads, 16 h; immunoblot. In general terms: Immunoblotting shows a protein as a band on a membrane.
The target in experiment [3] is T1, Apoptosis-Stimulating of P53 Protein 2 (ASPP2) (human (endogenous in AGS and MKN45)) (UniProt Q13625).
T1 sequence: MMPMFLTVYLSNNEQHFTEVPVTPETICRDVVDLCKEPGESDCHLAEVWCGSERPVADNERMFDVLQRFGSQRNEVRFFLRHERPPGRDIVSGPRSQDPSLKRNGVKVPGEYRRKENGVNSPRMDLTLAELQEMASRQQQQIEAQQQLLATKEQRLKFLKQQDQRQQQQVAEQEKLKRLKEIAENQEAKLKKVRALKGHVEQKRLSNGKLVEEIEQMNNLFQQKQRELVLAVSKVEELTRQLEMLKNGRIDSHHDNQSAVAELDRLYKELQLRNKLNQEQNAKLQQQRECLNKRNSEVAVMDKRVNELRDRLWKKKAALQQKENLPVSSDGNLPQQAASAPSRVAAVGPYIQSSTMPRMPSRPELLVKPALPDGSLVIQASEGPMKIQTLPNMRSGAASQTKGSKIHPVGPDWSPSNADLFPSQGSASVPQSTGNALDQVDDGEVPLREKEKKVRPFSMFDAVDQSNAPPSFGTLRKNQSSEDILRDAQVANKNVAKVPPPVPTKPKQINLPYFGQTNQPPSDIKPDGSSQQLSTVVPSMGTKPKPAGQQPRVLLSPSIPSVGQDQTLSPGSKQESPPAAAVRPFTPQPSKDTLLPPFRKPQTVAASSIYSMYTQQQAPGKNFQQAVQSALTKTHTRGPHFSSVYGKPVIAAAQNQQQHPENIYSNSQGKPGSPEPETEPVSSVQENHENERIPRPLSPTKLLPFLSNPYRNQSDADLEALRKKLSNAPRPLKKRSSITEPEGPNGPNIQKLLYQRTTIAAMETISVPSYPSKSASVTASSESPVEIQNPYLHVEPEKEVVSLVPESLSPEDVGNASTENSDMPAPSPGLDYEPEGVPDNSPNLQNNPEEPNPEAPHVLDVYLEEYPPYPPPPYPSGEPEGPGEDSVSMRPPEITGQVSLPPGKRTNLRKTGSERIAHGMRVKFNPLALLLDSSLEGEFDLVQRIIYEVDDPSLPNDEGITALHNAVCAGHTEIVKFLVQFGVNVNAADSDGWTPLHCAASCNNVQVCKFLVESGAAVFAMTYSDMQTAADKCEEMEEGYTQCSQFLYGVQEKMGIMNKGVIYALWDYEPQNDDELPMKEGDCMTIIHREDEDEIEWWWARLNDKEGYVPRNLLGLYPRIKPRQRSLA
Nature of the experiment: co-IP; endogenous proteins; lysates of MKN45 cells infected with H. pylori at 90 MOI for the indicated times; antibodies against ASPP2 on protein G beads, 16 h; immunoblot.

Experiment [4] concerns the target T1, Apoptosis-Stimulating of P53 Protein 2 (ASPP2) (human (endogenous in AGS and MKN45)). Nature of the experiment: co-IP; endogenous proteins; lysates of AGS cells (shCtrl and shASPP2) infected with H. pylori at 30 MOI for 8 h (Figure 5(a)) or for the indicated times (Figure 6(b)); antibodies against ASPP2 or CHOP on protein G beads, 16 h, 4°C; immunoblot.
In experiment [5] the target is CHOP (human (endogenous in AGS and MKN45)) (UniProt P35638). The experiment is described as above.

As for CHOP (from UniProt P35638 1-169), the binding result in experiment [1], in experiment [2], in experiment [3] and in experiment [4] was “binds” in each case.

B1: Apoptosis-Stimulating of P53 Protein 2 (ASPP2) (protein, UniProt Q13625 1-1128)
chain: MMPMFLTVYLSNNEQHFTEVPVTPETICRDVVDLCKEPGESDCHLAEVWCGSERPVADNERMFDVLQRFGSQRNEVRFFLRHERPPGRDIVSGPRSQDPSLKRNGVKVPGEYRRKENGVNSPRMDLTLAELQEMASRQQQQIEAQQQLLATKEQRLKFLKQQDQRQQQQVAEQEKLKRLKEIAENQEAKLKKVRALKGHVEQKRLSNGKLVEEIEQMNNLFQQKQRELVLAVSKVEELTRQLEMLKNGRIDSHHDNQSAVAELDRLYKELQLRNKLNQEQNAKLQQQRECLNKRNSEVAVMDKRVNELRDRLWKKKAALQQKENLPVSSDGNLPQQAASAPSRVAAVGPYIQSSTMPRMPSRPELLVKPALPDGSLVIQASEGPMKIQTLPNMRSGAASQTKGSKIHPVGPDWSPSNADLFPSQGSASVPQSTGNALDQVDDGEVPLREKEKKVRPFSMFDAVDQSNAPPSFGTLRKNQSSEDILRDAQVANKNVAKVPPPVPTKPKQINLPYFGQTNQPPSDIKPDGSSQQLSTVVPSMGTKPKPAGQQPRVLLSPSIPSVGQDQTLSPGSKQESPPAAAVRPFTPQPSKDTLLPPFRKPQTVAASSIYSMYTQQQAPGKNFQQAVQSALTKTHTRGPHFSSVYGKPVIAAAQNQQQHPENIYSNSQGKPGSPEPETEPVSSVQENHENERIPRPLSPTKLLPFLSNPYRNQSDADLEALRKKLSNAPRPLKKRSSITEPEGPNGPNIQKLLYQRTTIAAMETISVPSYPSKSASVTASSESPVEIQNPYLHVEPEKEVVSLVPESLSPEDVGNASTENSDMPAPSPGLDYEPEGVPDNSPNLQNNPEEPNPEAPHVLDVYLEEYPPYPPPPYPSGEPEGPGEDSVSMRPPEITGQVSLPPGKRTNLRKTGSERIAHGMRVKFNPLALLLDSSLEGEFDLVQRIIYEVDDPSLPNDEGITALHNAVCAGHTEIVKFLVQFGVNVNAADSDGWTPLHCAASCNNVQVCKFLVESGAAVFAMTYSDMQTAADKCEEMEEGYTQCSQFLYGVQEKMGIMNKGVIYALWDYEPQNDDELPMKEGDCMTIIHREDEDEIEWWWARLNDKEGYVPRNLLGLYPRIKPRQRSLA
With B1, the binding entry in experiment [5] was “binds”.

The record behind these values is paper PMC10403333.
